{"source": "PubChem BioAssay AID686938 (Drosophila RNAi Screening Center, 2013)", "test": "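Looking for CRAC channel components and the factors controlling them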 (primary screen)", "system": "Drosophila S2R+ cells", "reagents": "long dsRNA against Drosophila genes, about 0.25 µg dsRNA per well, roughly 10,000 cells", "duration": "5 days of knock-down before the calcium assay", "treatment": "thapsigargin (SERCA pump blocker) to empty calcium stores; entry signal taken 4 min after adding it", "read-out": "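Per-well fluo-4 fluorescence in two replicates, unnormalised, measured in resting cells and 4 min after store depletion by the SERCA blocker thapsigargin; ratio of the two present in few wells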", "direction": "calcium entry signal: higher = stronger calcium signal after store depletion; resting calcium signal: higher = higher resting calcium signal", "units": "calcium entry signal in fluorescence units; resting calcium signal in fluorescence units", "rule for the call": "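Called when the plate z-score of the entry-to-rest ratio, mean of duplicates, falls below −3; wells with low overall dye signal (Fmax z below −2) or more than five off-targets excluded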", "calls": "active = strongly reduced calcium entry; inactive = no strong reduction", "note": "The deposit covers about 23,000 reagents; this is a random part of those with a known target gene and a result. Over the whole deposit, 75 (0.33%) are marked active. 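Raw plate signals without normalisation; calls rest on plate z-scores that were not deposited; ratio present for only 364 wells.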 The record does not give: the dose of the treatment."}
{"predicted target": "CG7997", "amplicon": "DRSC07052", "calcium entry signal, replicate 1": 4.24e7, "calcium entry signal, replicate 2": 3.80e7, "resting calcium signal, replicate 1": 1.93e7, "resting calcium signal, replicate 2": 1.86e7, "call": "inactive"}
{"predicted target": "CG15167", "amplicon": "DRSC02468", "calcium entry signal, replicate 1": 4.45e7, "calcium entry signal, replicate 2": 4.20e7, "resting calcium signal, replicate 1": 2.17e7, "resting calcium signal, replicate 2": 1.82e7, "call": "inactive"}
{"predicted target": "CG14095", "amplicon": "DRSC10098", "calcium entry signal, replicate 1": 3.12e7, "calcium entry signal, replicate 2": 4.57e7, "resting calcium signal, replicate 1": 1.51e7, "resting calcium signal, replicate 2": 1.89e7, "call": "inactive"}
{"predicted target": "CG7102", "amplicon": "DRSC02647", "calcium entry signal, replicate 1": 4.25e7, "resting calcium signal, replicate 1": 2.22e7, "call": "inactive"}
{"predicted target": "CG7102", "amplicon": "DRSC03007", "calcium entry signal, replicate 1": 6.01e7, "calcium entry signal, replicate 2": 5.96e7, "resting calcium signal, replicate 1": 2.01e7, "resting calcium signal, replicate 2": 2.41e7, "call": "inactive"}
{"predicted target": "CG44837", "amplicon": "DRSC10133", "calcium entry signal, replicate 1": 2.14e7, "calcium entry signal, replicate 2": 3.05e7, "resting calcium signal, replicate 1": 1.33e7, "resting calcium signal, replicate 2": 1.75e7, "call": "inactive"}
{"predicted target": "CG44837", "amplicon": "DRSC10558", "calcium entry signal, replicate 1": 2.73e7, "calcium entry signal, replicate 2": 4.07e7, "resting calcium signal, replicate 1": 1.49e7, "resting calcium signal, replicate 2": 1.74e7, "call": "inactive"}
{"predicted target": "Ref2", "amplicon": "DRSC02563", "calcium entry signal, replicate 1": 4.40e7, "calcium entry signal, replicate 2": 3.04e7, "resting calcium signal, replicate 1": 1.98e7, "resting calcium signal, replicate 2": 1.50e7, "call": "inactive"}
{"predicted target": "Tsp5D", "amplicon": "DRSC18380", "calcium entry signal, replicate 1": 3.40e7, "calcium entry signal, replicate 2": 4.40e7, "resting calcium signal, replicate 1": 1.64e7, "resting calcium signal, replicate 2": 2.16e7, "call": "inactive"}
{"predicted target": "CG4598", "amplicon": "DRSC02763", "calcium entry signal, replicate 1": 3.11e7, "calcium entry signal, replicate 2": 4.94e7, "resting calcium signal, replicate 1": 1.59e7, "resting calcium signal, replicate 2": 2.03e7, "call": "inactive"}

No new results follow: 3 of the entries above.
{"predicted target": "CG44837", "amplicon": "DRSC10558", "calcium entry signal, replicate 1": 2.73e7, "calcium entry signal, replicate 2": 4.07e7, "resting calcium signal, replicate 1": 1.49e7, "resting calcium signal, replicate 2": 1.74e7, "call": "inactive"}
{"predicted target": "Ref2", "amplicon": "DRSC02563", "calcium entry signal, replicate 1": 4.40e7, "calcium entry signal, replicate 2": 3.04e7, "resting calcium signal, replicate 1": 1.98e7, "resting calcium signal, replicate 2": 1.50e7, "call": "inactive"}
{"predicted target": "Tsp5D", "amplicon": "DRSC18380", "calcium entry signal, replicate 1": 3.40e7, "calcium entry signal, replicate 2": 4.40e7, "resting calcium signal, replicate 1": 1.64e7, "resting calcium signal, replicate 2": 2.16e7, "call": "inactive"}

The listing continues.
{"predicted target": "CG13088", "amplicon": "DRSC02192", "calcium entry signal, replicate 1": 4.50e7, "calcium entry signal, replicate 2": 6.13e7, "resting calcium signal, replicate 1": 2.21e7, "resting calcium signal, replicate 2": 2.54e7, "call": "inactive"}
{"predicted target": "CG14282", "amplicon": "DRSC14763", "calcium entry signal, replicate 1": 3.75e7, "calcium entry signal, replicate 2": 3.85e7, "resting calcium signal, replicate 1": 3.83e7, "resting calcium signal, replicate 2": 1.66e7, "call": "inactive"}
{"predicted target": "Uros2", "amplicon": "DRSC16505", "calcium entry signal, replicate 1": 3.02e7, "calcium entry signal, replicate 2": 5.57e7, "resting calcium signal, replicate 1": 1.49e7, "resting calcium signal, replicate 2": 6.30e7, "call": "inactive"}
{"predicted target": "CG5790", "amplicon": "DRSC02896", "calcium entry signal, replicate 1": 3.68e7, "resting calcium signal, replicate 1": 1.80e7, "call": "inactive"}
{"predicted target": "CG14915", "amplicon": "DRSC02399", "calcium entry signal, replicate 1": 3.80e7, "calcium entry signal, replicate 2": 5.86e7, "resting calcium signal, replicate 1": 1.99e7, "resting calcium signal, replicate 2": 2.45e7, "call": "inactive"}
{"predicted target": "CG12679", "amplicon": "DRSC20493", "calcium entry signal, replicate 1": 5.77e7, "calcium entry signal, replicate 2": 4.58e7, "resting calcium signal, replicate 1": 2.64e7, "resting calcium signal, replicate 2": 1.80e7, "call": "inactive"}
{"predicted target": "Mtap", "amplicon": "DRSC06890", "calcium entry signal, replicate 1": 2.74e7, "calcium entry signal, replicate 2": 2.73e7, "resting calcium signal, replicate 1": 1.26e7, "resting calcium signal, replicate 2": 1.29e7, "call": "inactive"}
{"predicted target": "ntc", "amplicon": "DRSC08166", "calcium entry signal, replicate 1": 4.49e7, "calcium entry signal, replicate 2": 3.52e7, "resting calcium signal, replicate 1": 2.74e7, "resting calcium signal, replicate 2": 1.42e7, "call": "inactive"}
{"predicted target": "CG11370", "amplicon": "DRSC11653", "calcium entry signal, replicate 1": 1.59e7, "calcium entry signal, replicate 2": 2.49e7, "resting calcium signal, replicate 1": 9.55e6, "resting calcium signal, replicate 2": 1.27e7, "call": "inactive"}
{"predicted target": "CG33012", "amplicon": "DRSC06287", "calcium entry signal, replicate 1": 2.85e7, "calcium entry signal, replicate 2": 3.63e7, "resting calcium signal, replicate 1": 1.52e7, "resting calcium signal, replicate 2": 1.69e7, "call": "inactive"}
{"predicted target": "CG33012", "amplicon": "DRSC06288", "calcium entry signal, replicate 1": 2.82e7, "calcium entry signal, replicate 2": 3.84e7, "resting calcium signal, replicate 1": 1.57e7, "resting calcium signal, replicate 2": 1.76e7, "call": "inactive"}
